# The supplement of paper PMC10849652
# Sequences of proteins named here, by UniProt entry; tags and fusion partners are left off. A change or cut given only in a name is not applied to a line headed by its entry.
# UniProt Q9BSJ2, whole entry, looked up: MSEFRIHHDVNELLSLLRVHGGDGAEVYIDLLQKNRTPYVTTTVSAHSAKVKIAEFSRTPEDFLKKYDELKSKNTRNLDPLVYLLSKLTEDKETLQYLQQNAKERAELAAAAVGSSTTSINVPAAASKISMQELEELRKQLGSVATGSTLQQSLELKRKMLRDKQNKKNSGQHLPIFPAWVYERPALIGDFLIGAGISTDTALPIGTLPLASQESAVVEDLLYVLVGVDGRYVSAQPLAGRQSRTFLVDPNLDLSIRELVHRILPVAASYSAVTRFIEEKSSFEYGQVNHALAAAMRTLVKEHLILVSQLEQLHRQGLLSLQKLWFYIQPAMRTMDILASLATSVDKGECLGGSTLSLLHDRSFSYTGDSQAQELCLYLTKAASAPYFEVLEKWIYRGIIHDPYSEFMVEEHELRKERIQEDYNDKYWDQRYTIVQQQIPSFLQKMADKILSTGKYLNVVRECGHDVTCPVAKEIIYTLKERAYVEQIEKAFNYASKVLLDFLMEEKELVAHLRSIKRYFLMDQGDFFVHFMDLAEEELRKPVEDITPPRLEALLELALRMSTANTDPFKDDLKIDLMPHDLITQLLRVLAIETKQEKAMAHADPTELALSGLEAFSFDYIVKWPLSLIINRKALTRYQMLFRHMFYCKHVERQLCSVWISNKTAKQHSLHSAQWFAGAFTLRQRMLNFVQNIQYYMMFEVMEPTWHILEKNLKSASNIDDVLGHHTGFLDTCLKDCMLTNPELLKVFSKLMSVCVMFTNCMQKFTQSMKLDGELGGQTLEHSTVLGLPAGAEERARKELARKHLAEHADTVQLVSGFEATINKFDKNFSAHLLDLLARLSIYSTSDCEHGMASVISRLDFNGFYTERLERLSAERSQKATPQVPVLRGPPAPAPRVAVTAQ
# UniProt A6NHL2: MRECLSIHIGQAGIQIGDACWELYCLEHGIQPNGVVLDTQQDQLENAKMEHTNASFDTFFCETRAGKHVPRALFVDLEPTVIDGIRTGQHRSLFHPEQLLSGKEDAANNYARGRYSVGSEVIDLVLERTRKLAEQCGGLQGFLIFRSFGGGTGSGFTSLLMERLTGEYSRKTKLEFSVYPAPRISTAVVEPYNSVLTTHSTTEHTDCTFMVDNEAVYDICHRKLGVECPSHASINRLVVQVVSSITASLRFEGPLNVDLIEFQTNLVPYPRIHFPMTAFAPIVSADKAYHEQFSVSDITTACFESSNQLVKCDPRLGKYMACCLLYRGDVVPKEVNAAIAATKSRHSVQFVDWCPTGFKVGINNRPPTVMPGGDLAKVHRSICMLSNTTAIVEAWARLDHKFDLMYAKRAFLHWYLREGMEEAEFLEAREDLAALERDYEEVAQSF
# UniProt Q15631: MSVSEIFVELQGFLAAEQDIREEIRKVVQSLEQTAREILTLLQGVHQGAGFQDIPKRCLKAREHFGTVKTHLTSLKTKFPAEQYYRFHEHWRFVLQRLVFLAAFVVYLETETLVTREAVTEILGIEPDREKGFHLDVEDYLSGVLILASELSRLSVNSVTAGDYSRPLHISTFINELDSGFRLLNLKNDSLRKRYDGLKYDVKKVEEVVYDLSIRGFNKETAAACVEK
# UniProt Q8NG11: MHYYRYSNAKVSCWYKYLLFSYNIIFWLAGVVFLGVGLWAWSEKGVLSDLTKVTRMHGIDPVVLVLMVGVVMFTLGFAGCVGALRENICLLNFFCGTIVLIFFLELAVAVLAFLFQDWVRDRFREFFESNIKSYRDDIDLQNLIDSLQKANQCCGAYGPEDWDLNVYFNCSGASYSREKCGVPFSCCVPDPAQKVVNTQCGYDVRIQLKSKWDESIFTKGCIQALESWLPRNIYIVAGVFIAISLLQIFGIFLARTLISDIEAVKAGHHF
# UniProt Q99614: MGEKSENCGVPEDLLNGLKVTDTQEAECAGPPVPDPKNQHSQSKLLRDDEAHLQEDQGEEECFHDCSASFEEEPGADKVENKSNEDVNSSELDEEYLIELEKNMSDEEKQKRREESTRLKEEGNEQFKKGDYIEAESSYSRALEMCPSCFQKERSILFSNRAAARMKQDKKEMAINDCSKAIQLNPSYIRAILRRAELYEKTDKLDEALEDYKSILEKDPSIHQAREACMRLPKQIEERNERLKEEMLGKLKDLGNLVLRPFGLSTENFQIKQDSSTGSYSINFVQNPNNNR
# UniProt O95881: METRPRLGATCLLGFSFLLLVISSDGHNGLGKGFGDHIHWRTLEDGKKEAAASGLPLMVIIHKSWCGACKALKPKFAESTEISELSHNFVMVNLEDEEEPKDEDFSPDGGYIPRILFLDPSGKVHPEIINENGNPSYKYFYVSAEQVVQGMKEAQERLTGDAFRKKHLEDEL
# UniProt Q9BRA2: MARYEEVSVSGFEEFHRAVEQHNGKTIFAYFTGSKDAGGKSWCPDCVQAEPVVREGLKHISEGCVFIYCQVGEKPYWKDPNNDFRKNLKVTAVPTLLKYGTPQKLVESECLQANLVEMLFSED
# UniProt Q14166: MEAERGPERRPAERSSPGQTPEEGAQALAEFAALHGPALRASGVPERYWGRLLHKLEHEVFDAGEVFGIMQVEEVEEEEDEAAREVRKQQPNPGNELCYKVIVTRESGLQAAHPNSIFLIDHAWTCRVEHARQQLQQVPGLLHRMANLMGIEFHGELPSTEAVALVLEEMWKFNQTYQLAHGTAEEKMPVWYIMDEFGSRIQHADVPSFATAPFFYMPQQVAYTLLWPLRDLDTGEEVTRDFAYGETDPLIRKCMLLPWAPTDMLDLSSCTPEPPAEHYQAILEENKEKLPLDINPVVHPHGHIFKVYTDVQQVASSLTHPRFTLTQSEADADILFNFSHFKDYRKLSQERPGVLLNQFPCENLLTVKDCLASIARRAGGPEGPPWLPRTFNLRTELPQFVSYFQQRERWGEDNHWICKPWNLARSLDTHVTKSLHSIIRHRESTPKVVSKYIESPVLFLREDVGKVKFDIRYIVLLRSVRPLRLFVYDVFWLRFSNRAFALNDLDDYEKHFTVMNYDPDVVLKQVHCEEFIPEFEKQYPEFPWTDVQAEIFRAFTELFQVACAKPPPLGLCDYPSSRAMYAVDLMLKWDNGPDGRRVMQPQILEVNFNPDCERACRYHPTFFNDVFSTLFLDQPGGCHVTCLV
# UniProt Q5BVD1: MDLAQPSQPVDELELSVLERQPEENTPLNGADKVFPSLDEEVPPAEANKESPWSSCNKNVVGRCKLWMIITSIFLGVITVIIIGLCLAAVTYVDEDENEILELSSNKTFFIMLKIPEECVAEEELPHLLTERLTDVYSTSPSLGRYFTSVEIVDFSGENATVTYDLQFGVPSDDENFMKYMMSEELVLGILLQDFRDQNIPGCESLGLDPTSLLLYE
# UniProt P83876: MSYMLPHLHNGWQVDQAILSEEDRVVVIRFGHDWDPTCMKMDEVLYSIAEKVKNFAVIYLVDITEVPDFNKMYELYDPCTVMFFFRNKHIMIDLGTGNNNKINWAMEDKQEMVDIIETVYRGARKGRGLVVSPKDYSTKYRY
# UniProt Q6PKC3: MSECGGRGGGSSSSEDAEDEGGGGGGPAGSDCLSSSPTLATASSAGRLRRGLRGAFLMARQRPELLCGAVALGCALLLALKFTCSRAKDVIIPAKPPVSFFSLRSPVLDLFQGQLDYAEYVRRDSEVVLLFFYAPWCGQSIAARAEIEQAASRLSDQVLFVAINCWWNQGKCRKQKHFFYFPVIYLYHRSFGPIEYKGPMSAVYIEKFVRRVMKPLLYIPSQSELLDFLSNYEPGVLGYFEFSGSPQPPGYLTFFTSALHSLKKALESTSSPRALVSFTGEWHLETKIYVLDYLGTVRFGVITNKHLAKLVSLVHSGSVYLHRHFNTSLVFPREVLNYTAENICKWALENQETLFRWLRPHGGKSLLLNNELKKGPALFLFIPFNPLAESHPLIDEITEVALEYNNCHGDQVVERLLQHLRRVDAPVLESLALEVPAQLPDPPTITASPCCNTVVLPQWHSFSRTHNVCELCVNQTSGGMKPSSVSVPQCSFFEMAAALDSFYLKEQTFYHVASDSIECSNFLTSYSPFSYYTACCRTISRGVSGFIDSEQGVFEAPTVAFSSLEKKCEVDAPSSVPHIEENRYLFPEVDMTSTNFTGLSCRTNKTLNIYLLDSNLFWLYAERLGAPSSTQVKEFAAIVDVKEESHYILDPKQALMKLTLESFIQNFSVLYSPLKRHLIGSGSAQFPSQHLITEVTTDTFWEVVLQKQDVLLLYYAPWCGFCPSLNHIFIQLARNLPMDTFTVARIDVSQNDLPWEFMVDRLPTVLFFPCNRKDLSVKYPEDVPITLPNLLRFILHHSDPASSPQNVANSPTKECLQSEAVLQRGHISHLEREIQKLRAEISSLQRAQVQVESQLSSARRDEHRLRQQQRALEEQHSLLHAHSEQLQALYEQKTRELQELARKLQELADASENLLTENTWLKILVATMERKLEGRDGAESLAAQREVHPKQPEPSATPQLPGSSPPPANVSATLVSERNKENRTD
# UniProt O43396: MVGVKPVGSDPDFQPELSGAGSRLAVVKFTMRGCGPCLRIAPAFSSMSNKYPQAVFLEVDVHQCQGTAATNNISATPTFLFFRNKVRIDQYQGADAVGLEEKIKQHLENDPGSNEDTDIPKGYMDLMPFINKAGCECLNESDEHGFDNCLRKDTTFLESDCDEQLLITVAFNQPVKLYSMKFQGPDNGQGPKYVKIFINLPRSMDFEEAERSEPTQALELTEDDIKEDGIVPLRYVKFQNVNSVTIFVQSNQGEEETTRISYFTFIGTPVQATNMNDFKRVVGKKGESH
# UniProt Q5R3I4: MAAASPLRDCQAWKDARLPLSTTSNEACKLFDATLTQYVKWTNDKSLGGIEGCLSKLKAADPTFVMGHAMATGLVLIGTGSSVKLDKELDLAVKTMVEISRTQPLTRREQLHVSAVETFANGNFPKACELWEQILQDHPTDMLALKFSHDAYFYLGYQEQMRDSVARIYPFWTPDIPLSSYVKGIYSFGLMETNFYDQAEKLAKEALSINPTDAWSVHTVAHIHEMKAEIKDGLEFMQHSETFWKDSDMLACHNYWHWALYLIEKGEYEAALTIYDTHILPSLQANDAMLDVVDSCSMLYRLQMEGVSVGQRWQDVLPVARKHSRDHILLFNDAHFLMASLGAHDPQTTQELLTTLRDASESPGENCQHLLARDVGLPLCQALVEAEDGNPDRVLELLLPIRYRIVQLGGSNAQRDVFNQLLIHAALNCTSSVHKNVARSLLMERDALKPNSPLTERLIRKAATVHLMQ
# UniProt Q6IBS0: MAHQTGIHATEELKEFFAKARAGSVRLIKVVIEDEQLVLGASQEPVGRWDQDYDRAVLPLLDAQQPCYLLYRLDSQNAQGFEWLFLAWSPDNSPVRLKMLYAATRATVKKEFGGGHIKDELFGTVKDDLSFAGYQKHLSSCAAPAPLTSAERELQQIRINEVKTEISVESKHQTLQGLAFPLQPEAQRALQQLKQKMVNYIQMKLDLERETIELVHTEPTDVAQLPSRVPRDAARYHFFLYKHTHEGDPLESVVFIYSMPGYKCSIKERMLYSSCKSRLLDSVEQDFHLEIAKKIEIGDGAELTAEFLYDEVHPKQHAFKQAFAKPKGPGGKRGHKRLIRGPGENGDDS
# UniProt Q96RT8, whole entry, looked up: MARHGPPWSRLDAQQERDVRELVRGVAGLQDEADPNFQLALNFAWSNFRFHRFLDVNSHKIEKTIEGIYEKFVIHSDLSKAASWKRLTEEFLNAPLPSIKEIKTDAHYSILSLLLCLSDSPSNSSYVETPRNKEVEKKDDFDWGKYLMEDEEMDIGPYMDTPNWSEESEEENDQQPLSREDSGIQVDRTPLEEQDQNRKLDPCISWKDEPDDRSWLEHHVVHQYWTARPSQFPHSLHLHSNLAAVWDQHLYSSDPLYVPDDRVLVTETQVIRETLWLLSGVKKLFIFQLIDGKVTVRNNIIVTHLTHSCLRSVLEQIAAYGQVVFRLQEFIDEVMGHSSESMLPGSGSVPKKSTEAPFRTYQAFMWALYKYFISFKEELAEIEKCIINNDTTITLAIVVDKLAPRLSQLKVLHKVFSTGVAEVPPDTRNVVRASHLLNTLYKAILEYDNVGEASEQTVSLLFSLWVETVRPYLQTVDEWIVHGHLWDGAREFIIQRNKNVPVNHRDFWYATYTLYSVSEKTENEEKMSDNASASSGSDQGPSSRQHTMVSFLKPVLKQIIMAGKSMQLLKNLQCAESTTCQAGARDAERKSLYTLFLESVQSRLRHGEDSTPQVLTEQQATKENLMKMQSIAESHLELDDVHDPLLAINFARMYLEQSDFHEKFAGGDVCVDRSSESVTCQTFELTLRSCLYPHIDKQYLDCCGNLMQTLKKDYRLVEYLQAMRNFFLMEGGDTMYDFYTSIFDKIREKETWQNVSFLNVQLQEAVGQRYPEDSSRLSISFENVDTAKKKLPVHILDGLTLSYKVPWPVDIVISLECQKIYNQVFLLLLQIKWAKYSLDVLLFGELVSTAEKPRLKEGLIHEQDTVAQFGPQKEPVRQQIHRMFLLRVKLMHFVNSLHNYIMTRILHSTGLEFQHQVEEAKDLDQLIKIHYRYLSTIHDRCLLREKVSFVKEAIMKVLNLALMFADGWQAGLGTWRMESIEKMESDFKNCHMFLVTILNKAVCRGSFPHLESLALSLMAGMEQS
# The list shows a part of the results.
# Key:
# Experiment in all cases: log2 fold change, soluble protein after heating vs DMSO (PISA); higher = thermal stabilisation; K562 cells, 10 uM, 30 min; active = over 0.2 and 3.5 SD of the protein, either way, in both replicates (recomputed)
# bafetinib = compound: Cc1ccc(NC(=O)c2ccc(CN3CC[C@H](N(C)C)C3)c(C(F)(F)F)c2)cc1Nc1nccc(-c2cncnc2)n1 [bafetinib]
# Outline: (§1)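 K562 cells at 2×10^6 cells/mL were treated for 30 min with 10 μM compound, and aliquots were heated for 3 min over 48°C-58°C before pooling. Extraction used PBS with 0.5% NP-40 at 4°C, and soluble protein was the supernatant after 21,000xg for 90 min, measured by TMTpro 16plex LC-MS/MS with channel sums equalised. Thermal stability values, relative to control samples and from duplicates, are log2 fold changes.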
# [1] = compound: Cc1cccc(CC(=O)N2CCc3c2ccc(-c2cn(C)c4ncnc(N)c24)c3F)n1
# Outline: as §1
# nilotinib = compound: Cc1cn(-c2cc(NC(=O)c3ccc(C)c(Nc4nccc(-c5cccnc5)n4)c3)cc(C(F)(F)F)c2)cn1 [nilotinib]
# Outline: as §1
# [2] = compound: Cc1nc(Nc2n[nH]c3c2CN(C(=O)N[C@H](CN(C)C)c2ccccc2)C3(C)C)c2sccc2n1
# Outline: as §1
# dasatinib = compound: Cc1nc(Nc2ncc(C(=O)Nc3c(C)cccc3Cl)s2)cc(N2CCN(CCO)CC2)n1 [dasatinib]
# Outline: as §1
# [3] = compound: Cc1ncc(-c2ccnc(Nc3ccc(S(C)(=O)=O)cc3)n2)n1C(C)C
# Outline: as §1
# [4] = compound: Cn1cc(-c2ccc3c(c2)CCN3C(=O)Cc2cccc(C(F)(F)F)c2)c2c(N)ncnc21
# Outline: as §1
# [5] = compound: Cn1cc(-c2ccc3nnc(C(F)(F)c4ccc5ncccc5c4)n3n2)cn1
# Outline: as §1
# tipifarnib = compound: Cn1cncc1[C@@](N)(c1ccc(Cl)cc1)c1ccc2c(c1)c(-c1cccc(Cl)c1)cc(=O)n2C [tipifarnib]
# Outline: as §1
# mubritinib = compound: FC(F)(F)c1ccc(/C=C/c2nc(COc3ccc(CCCCn4ccnn4)cc3)co2)cc1 [mubritinib]
# Outline: as §1
Target,log2 fold change (bafetinib),log2 fold change [1],log2 fold change (nilotinib),log2 fold change [2],log2 fold change (dasatinib),log2 fold change [3],log2 fold change [4],log2 fold change [5],log2 fold change (tipifarnib),log2 fold change (mubritinib)
TUBGCP2 isoform 4 (UniProt Q9BSJ2),inactive: -0.137,inactive: 0.046,inactive: -0.015,inactive: -0.242,inactive: -0.198,inactive: 0.003,inactive: -0.035,inactive: -0.184,inactive: 0.043,inactive: 0.095
TUBAL3 (UniProt A6NHL2),inactive: 0.167,inactive: 0.049,inactive: -0.144,inactive: 0.027,inactive: 0.051,inactive: -0.029,inactive: 0.005,inactive: -0.095,inactive: -0.097,inactive: -0.01
TUBA1B (UniProt P68363),inactive: 0.001,inactive: 0.024,inactive: -0.018,inactive: 0.019,inactive: -0.049,inactive: -0.049,inactive: 0.05,inactive: 0.049,inactive: -0.001,inactive: 0.052
UBE3A (UniProt Q05086),inactive: -0.034,inactive: 0.023,inactive: -0.01,inactive: 0.001,inactive: -0.044,inactive: -0.026,inactive: 0.021,inactive: -0.002,inactive: -0.015,inactive: 0.065
UBE2D3 isoform 3 (UniProt P61077),inactive: -0.04,inactive: 0.035,inactive: -0.054,inactive: -0.021,inactive: -0.024,inactive: -0.011,inactive: -0.03,inactive: 0.01,inactive: -0.007,inactive: 0.031
TTN isoform 12 (UniProt Q8WZ42),inactive: -0.239,inactive: -0.274,inactive: 0.001,inactive: 0.097,inactive: 0.138,inactive: -0.047,inactive: -0.012,inactive: 0.103,inactive: 0.159,inactive: 0.034
UAP1 (UniProt Q16222),inactive: 0.01,inactive: -0.008,inactive: -0.019,inactive: 0.017,inactive: -0.018,inactive: -0.006,inactive: 0.07,inactive: -0.012,inactive: -0.063,inactive: 0.005
UBE2NL (UniProt Q5JXB2),inactive: -0.028,inactive: 0.027,inactive: 0.005,inactive: -0.048,inactive: 0.079,inactive: -0.018,inactive: 0.139,inactive: 0.05,inactive: -0.06,inactive: 0.052
TXNDC5 (UniProt Q8NBS9),inactive: -0.035,inactive: -0.041,inactive: -0.02,inactive: 0.013,inactive: 0.025,inactive: -0.012,inactive: -0.014,inactive: 0,inactive: 0.058,inactive: -0.005
UBE2Z (UniProt Q9H832),inactive: -0.054,inactive: 0.055,inactive: 0.031,inactive: -0.005,inactive: -0.026,inactive: 0.004,inactive: 0.019,inactive: 0.009,inactive: -0.036,inactive: 0.023
TSN (UniProt Q15631),inactive: 0.045,inactive: -0.028,inactive: -0.015,inactive: 0.034,inactive: -0.006,inactive: -0.016,inactive: 0.032,inactive: -0.014,inactive: -0.038,inactive: 0.017
TSPAN14 (UniProt Q8NG11),inactive: 0.072,inactive: -0.154,inactive: 0.006,inactive: 0.059,inactive: 0.046,inactive: 0.006,inactive: 0.036,inactive: 0.007,inactive: 0.019,inactive: 0.011
TTC1 (UniProt Q99614),inactive: -0.066,inactive: -0.038,inactive: 0.03,inactive: 0.007,inactive: 0.003,inactive: -0.022,inactive: 0.006,inactive: 0.02,inactive: 0.022,inactive: 0.012
UBE2E3 (UniProt Q969T4),inactive: -0.029,inactive: -0.029,inactive: -0.126,inactive: 0.023,inactive: -0.113,inactive: 0.025,inactive: -0.028,inactive: -0.004,inactive: -0.131,inactive: 0.056
TXNDC12 (UniProt O95881),inactive: -0.043,inactive: 0.031,inactive: -0.019,inactive: 0.033,inactive: 0.077,inactive: -0.046,inactive: -0.049,inactive: -0.043,inactive: 0.103,inactive: -0.011
TXNDC17 (UniProt Q9BRA2),inactive: -0.071,inactive: -0.049,inactive: -0.02,inactive: -0.04,inactive: -0.006,inactive: 0.015,inactive: 0.03,inactive: 0.027,inactive: 0,inactive: 0.007
U2AF2 (UniProt P26368),inactive: -0.019,active: -0.241,inactive: -0.003,active: -1.66,inactive: 0.018,inactive: 0.049,inactive: -0.011,inactive: -0.044,inactive: 0.045,inactive: -0.051
UBE2I (UniProt P63279),inactive: -0.049,inactive: 0.059,inactive: 0.001,inactive: -0.043,inactive: -0.023,inactive: -0.02,inactive: 0.072,inactive: 0.065,inactive: 0,inactive: 0.06
TTLL12 (UniProt Q14166),inactive: 0.171,inactive: 0.11,inactive: -0.186,inactive: -0.056,inactive: 0.018,inactive: -0.023,inactive: -0.299,inactive: -0.226,inactive: -0.116,inactive: -0.246
TTMP isoform 3 (UniProt Q5BVD1),inactive: 0.023,inactive: -0.033,inactive: -0.062,inactive: -0.024,inactive: 0.138,inactive: 0.007,inactive: 0.111,inactive: -0.045,–,inactive: 0.109
TXNL4A (UniProt P83876),inactive: -0.026,inactive: -0.004,inactive: -0.018,inactive: 0.014,inactive: -0.008,inactive: -0.039,inactive: 0.038,inactive: -0.019,inactive: 0.02,inactive: 0.053
TTC33 (UniProt Q6PID6),inactive: 0.049,inactive: 0.181,–,–,inactive: 0.043,–,inactive: -0.084,inactive: -0.069,inactive: -0.03,inactive: 0.113
TUBB2A (UniProt Q13885),inactive: -0.002,inactive: 0.003,inactive: 0,inactive: 0.013,inactive: -0.015,inactive: -0.03,inactive: -0.006,inactive: 0,inactive: -0.006,inactive: 0.016
TXNDC11 (UniProt Q6PKC3),inactive: -0.101,inactive: 0.013,–,–,inactive: 0.045,–,inactive: 0.056,inactive: 0.038,inactive: -0.156,inactive: 0.035
TXNL1 (UniProt O43396),inactive: 0.04,inactive: 0.005,inactive: -0.035,inactive: -0.006,inactive: -0.074,inactive: 0.008,inactive: -0.004,inactive: -0.035,inactive: -0.06,inactive: 0.057
TTC38 (UniProt Q5R3I4),inactive: -0.012,inactive: 0.021,inactive: 0.038,inactive: 0.034,inactive: 0.024,inactive: -0.04,inactive: 0.071,inactive: -0.021,inactive: 0.05,inactive: 0.322
TWF2 (UniProt Q6IBS0),inactive: 0.025,inactive: 0.113,inactive: 0.026,inactive: -0.047,inactive: 0.01,inactive: 0.037,inactive: 0.082,inactive: 0.062,inactive: -0.057,inactive: 0.174
TSSC4 (UniProt Q9Y5U2),inactive: -0.032,inactive: -0.194,inactive: 0.022,inactive: 0.067,inactive: -0.045,inactive: -0.021,inactive: -0.015,inactive: -0.11,inactive: 0.056,inactive: -0.096
TUBGCP5 (UniProt Q96RT8),inactive: -0.216,inactive: -0.143,inactive: 0.168,inactive: 0.054,–,inactive: -0.131,inactive: 0.058,–,inactive: -0.01,–

# Retrieved one by one from above:
Target,log2 fold change (bafetinib),log2 fold change [1],log2 fold change (nilotinib),log2 fold change [2],log2 fold change (dasatinib),log2 fold change [3],log2 fold change [4],log2 fold change [5],log2 fold change (tipifarnib),log2 fold change (mubritinib)
TTMP isoform 3 (UniProt Q5BVD1),inactive: 0.023,inactive: -0.033,inactive: -0.062,inactive: -0.024,inactive: 0.138,inactive: 0.007,inactive: 0.111,inactive: -0.045,–,inactive: 0.109
UBE2I (UniProt P63279),inactive: -0.049,inactive: 0.059,inactive: 0.001,inactive: -0.043,inactive: -0.023,inactive: -0.02,inactive: 0.072,inactive: 0.065,inactive: 0,inactive: 0.06
